Values from PubChem BioAssay AID1224830 (NIAID, 2016).

Test: 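Host factors that control LPS-induced TNF expression in human macrophages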 (primary screen)
Cell system: human THP-1 monocytic leukaemia cells, TNF dual-luciferase reporter clone, PMA-differentiated to macrophage-like cells
Knock-down reagent: siRNA pool against human genes, 50 nM
Time to read-out: LPS for 4 h, given about 3 days after siRNA transfection
Conditions: bacterial LPS (TLR4 ligand), 10 ng/ml
Measured: 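Ratio of firefly to renilla light, scaled to the plate median and expressed as a robust z-score per replicate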
Reading the numbers: TNF reporter robust z-score: higher = stronger TNF reporter response to LPS
Call rule: 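a well is active when its z-score exceeds 2.8 or falls below -1.5; control wells carry no call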
This is a random part of about 18,000 reagents. About 2,900 of all reagents (16%) count as active. 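Calls are made per well; low scores hint the gene aids the LPS response, high scores that it dampens it.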 Repeated entries: four replicate wells of each siRNA pool.

gene knocked down,TNF reporter robust z-score,outcome
FAM8A1,-1.38,inactive
FAM8A1,-0.31,inactive
FAM8A1,-0.85,inactive
FAM8A1,0.02,inactive
PEBP4,0.34,inactive
PEBP4,0.86,inactive
PEBP4,0.4,inactive
PEBP4,0.27,inactive
NAP1L3,0.53,inactive
NAP1L3,0.42,inactive
NAP1L3,0.24,inactive
NAP1L3,0.57,inactive
ZNF664,0.25,inactive
ZNF664,1.65,inactive
ZNF664,0.53,inactive
ZNF664,1.04,inactive
SACK1C,1.87,inactive
SACK1C,2.46,inactive
SACK1C,2.6,inactive
SACK1C,1.8,inactive
CDK5RAP3,-0.18,inactive
CDK5RAP3,0.21,inactive
CDK5RAP3,-0.25,inactive
CDK5RAP3,0.22,inactive
PTPDC1,-1.39,inactive
PTPDC1,-1.24,inactive
PTPDC1,-0.57,inactive
PTPDC1,-0.6,inactive
SMG1,-1.12,inactive
SMG1,-1.64,active
SMG1,0.02,inactive
SMG1,-0.49,inactive
MTBP,3.36,active
MTBP,4.77,active
MTBP,0.94,inactive
MTBP,2.32,inactive
SLC25A47,-0.92,inactive
SLC25A47,6.63,active
SLC25A47,0.34,inactive
SLC25A47,0.78,inactive
PHF2,1.26,inactive
PHF2,-0.75,inactive
PHF2,0.56,inactive
PHF2,-0.56,inactive
UPB1,-0.84,inactive
UPB1,0.52,inactive
UPB1,-0.02,inactive
UPB1,-0.38,inactive

In a second layout: results already given.
MTBP: TNF reporter robust z-score = 3.36; outcome = active
MTBP: TNF reporter robust z-score = 4.77; outcome = active
